{
  "source": "patent US20060135589A1",
  "about": "“1h-Indazole-3-carboxamide compounds as cyclin dependent kinase (cdk) inhibitors” (Astex Technology, Inc., priority 2002, published 2006)",
  "target": "T1, CDK2/CyclinA (Homo sapiens, UniProt P24941)",
  "T1 construct": "purchased Upstate Biotechnology",
  "assay": "Measurement of CDK2 kinase inhibitory activity (IC50), 33P-ATP / histone H1 filter assay",
  "assay_type": "biochemical",
  "conditions": "read-out: IC50 (concentration of test compound required to inhibit 50% of the CDK2 activity); stated as an alternative: IC50 less than 100 μM OR at least 50% inhibition at 50 μM",
  "protocol": "Measurement of CDK2 Kinase Inhibitory Activity (IC50)\nCompounds of the invention were tested for kinase inhibitory activity using the following protocol.\n1.7 μl of active CDK2/CyclinA (Upstate Biotechnology, 10 U/μl) is diluted in assay buffer (250 μl of 10× strength assay buffer (200 mM MOPS pH 7.2, 250 mM β-glycerophosphate, 50 mM EDTA, 150 mM MgCl2), 11.27 μl 10 mM ATP, 2.5 μl 1M DTT, 25 μl 100 mM sodium orthovanadate, 708.53 μl H2O), and 10 μl mixed with 10 μl of histone substrate mix (60 μl bovine histone H1 (Upstate Biotechnology, 5 mg/ml), 940 μl H2O, 35 μCi γ^33P-ATP) and added to 96 well plates along with 5 μl of various dilutions of the test compound in DMSO (up to 2.5%). The reaction is allowed to proceed for 5 hours before being stopped with an excess of ortho-phosphoric acid (30 μl at 2%).\nγ^33P-ATP which remains unincorporated into the histone H1 is separated from phosphorylated histone H1 on a Millipore MAPH filter plate. The wells of the MAPH plate are wetted with 0.5% orthophosphoric acid, and then the results of the reaction are filtered with a Millipore vacuum filtration unit through the wells. Following filtration, the residue is washed twice with 200 μl of 0.5% orthophosphoric acid. Once the filters have dried, 25 μl of Microscint 20 scintillant is added, and then counted on a Packard Topcount for 30 seconds.",
  "note": "Some results were stated once for a whole list of compounds, not compound by compound.",
  "data": [
    {"smiles": "CNS(=O)(=O)Cc1ccc(NC(=O)c2n[nH]c3ccc(NC(=O)NCCCl)cc23)cc1", "note": "[Example 63, 5-[3-(2-Chloro-ethyl)-ureido]-1H-indazole-3-carboxylic acid (4-methylsulphamoylmethyl-phenyl)-amide]", "values": [
      {"measurement": "IC50", "result": "< 100", "unit": "µM"}
    ]}
  ]
}
